The subject of the test is P388 leukemia ip, CD2F1 mice, survival T/C. Description: NCI In Vivo Anticancer Drug Screen. Data for tumor model P388 Leukemia (intraperitoneal) in CD2F1 (CDF1) mice. Conditions: T/C endpoint: median survival time, higher T/C = longer survival.
The mark [1] stands for this setting: dose: 240.0 mg/kg/injection, schedule: Q01DX005 (ip), vehicle: saline with Tween-80.
The mark [2] stands for this setting: dose: 50.0 mg/kg/injection, schedule: Q01DX009 (ip), vehicle: saline with Tween-80.
Setting [3] is: dose: 200.0 mg/kg/injection, schedule: Q01DX005 (ip), vehicle: saline with Tween-80.
Where [4] appears, read: dose: 100.0 mg/kg/injection, schedule: Q01DX009 (ip), vehicle: saline.
Where [5] appears, read: dose: 200.0 mg/kg/injection, schedule: Q01DX009 (ip), vehicle: Klucel (hydroxypropylcellulose) (HPC).
[6] abbreviates: dose: 200.0 mg/kg/injection, schedule: Q01DX009 (ip), vehicle: saline with Tween-80.
Setting [7] is: dose: 100.0 mg/kg/injection, schedule: Q01DX005 (ip), vehicle: Klucel (hydroxypropylcellulose) (HPC).
Where [8] appears, read: dose: 200.0 mg/kg/injection, schedule: Q01DX005 (ip), vehicle: Klucel (hydroxypropylcellulose) (HPC).

The list does not hold the whole screen: it gathers tests that were run many times, whatever their T/C, doses with no T/C, and many T/C values between a quarter and a half above the control. Other doses and runs of a compound stand elsewhere. T/C gives the treated animals as a percentage of the vehicle group. Some doses have a count of surviving animals in place of a T/C: the source holds a T/C of zero for them, seemingly a mark for toxic or unscored doses. Some doses without a T/C left all or most animals alive at the check, yet need not have been tolerated: survival well below the control is almost never listed, so the zero probably covers shortened survival too. Survivors were counted at the toxicity check, usually on the fifth day, unless a day is given; later deaths do not show. Schedules are NCI's codes, read here as Q, the interval in days (D) or hours (H), X, the number of doses. Some doses were run more than once; their values stand side by side, smallest first. For survival time, this PubChem deposit counts one and a half times the control or more as active, and values a quarter to a half above the control carry no call in these data; other NCI protocols may use other cut-offs.

Turning to `CC1=CC=c2ccc3c(c2[N-]1)[N-]C(C)=CC=3.CC1=CC=c2ccc3c(c2[N-]1)[N-]C(C)=CC=3.O=[N+]([O-])O.[Cu+]`, the survivor count (dose: 25.0 mg/kg/injection, schedule: Q04DX002 (ip), vehicle: suspension in saline) is 0 of 6; the survivor count (dose: 100.0 mg/kg/injection, schedule: Q04DX002 (ip), vehicle: suspension in saline) is 0 of 6; the survivor count (dose: 200.0 mg/kg/injection, schedule: Q04DX002 (ip), vehicle: suspension in saline) is reported as 0 of 6; the survivor count (dose: 400.0 mg/kg/injection, schedule: Q04DX002 (ip), vehicle: suspension in saline) is 0 of 6.
For `FC(F)(F)C1(C(F)(F)F)OI(Cl)c2ccccc21`, the survivor count by setting is: (dose: 100.0 mg/kg/injection, schedule: Q04DX002 (ip), vehicle: Klucel (hydroxypropylcellulose) (HPC)) 6 of 6; (dose: 200.0 mg/kg/injection, schedule: Q04DX002 (ip), vehicle: Klucel (hydroxypropylcellulose) (HPC)) 5 of 6; (dose: 400.0 mg/kg/injection, schedule: Q04DX002 (ip), vehicle: Klucel (hydroxypropylcellulose) (HPC)) 2 of 6.
Regarding `COc1c2occc2c(CCl)c2ccc(=O)oc12`, the survivor count by setting is: (dose: 120.0 mg/kg/injection, schedule: Q01DX005 (ip), vehicle: Klucel (hydroxypropylcellulose) (HPC)) 4 of 6; (dose: 240.0 mg/kg/injection, schedule: Q01DX005 (ip), vehicle: Klucel (hydroxypropylcellulose) (HPC)) 0 of 6.
Consider `N#CNc1c2ccccc2nc2ccccc12`, for which the survivor count runs as follows: (dose: 120.0 mg/kg/injection, schedule: Q01DX005 (ip), vehicle: saline with Tween-80) 6 of 6; under setting [1], 6 of 6.
As for `CCCCCCCCCCCCCCCC(=O)N1CCN(C)CC1`, the survivor count is, setting by setting: under setting [2], 3 of 6; (dose: 100.0 mg/kg/injection, schedule: Q01DX009 (ip), vehicle: saline with Tween-80) 5 of 6.
Regarding `CCN(CC)CCNc1ccc(COC(N)=O)c2sc3ccccc3c(=O)c12`, the T/C (dose: 400.0 mg/kg/injection, schedule: Q04DX003 (ip), vehicle: saline) was 142 % of control.
`Cc1ccc2occ(/C=N/NC(N)=S)c(=O)c2c1`: under setting [3], the survivor count is 6 of 6.
Turning to `O=S(c1ccccc1)c1c(Cl)c(Cl)nc(Cl)c1Cl` (stereo not given), the survivor count by setting is: (dose: 33.0 mg/kg/injection, schedule: Q01DX009 (ip), vehicle: saline with Tween-80) 4 of 6; under setting [2], 4 of 6 and 6 of 6; (dose: 75.0 mg/kg/injection, schedule: Q01DX009 (ip), vehicle: saline with Tween-80) 0 of 6 and 1 of 6.
On to `OC[P+](CO)(CO)CO`, for which the survivor count (dose: 25.0 mg/kg/injection, schedule: Q01DX005 (ip), vehicle: saline with Tween-80) was 3 of 6; the survivor count (dose: 50.0 mg/kg/injection, schedule: Q01DX005 (ip), vehicle: saline with Tween-80) was 0 of 6; the survivor count (dose: 100.0 mg/kg/injection, schedule: Q01DX005 (ip), vehicle: saline with Tween-80) is 0 of 6; the survivor count under setting [3] is listed as 0 of 6.
For `Nc1cc(Cl)c(Cl)c(Cl)c1N`, the survivor count under setting [4] is given as 6 of 6; the survivor count (dose: 400.0 mg/kg/injection, schedule: Q01DX009 (ip), vehicle: saline with Tween-80) was 1 of 6; the survivor count (dose: 400.0 mg/kg/injection, schedule: Q01DX009 (ip), vehicle: saline) was 3 of 6 and 4 of 6; the survivor count (dose: 600.0 mg/kg/injection, schedule: Q01DX009 (ip), vehicle: saline) is recorded as 0 of 6.
Take `Cc1cc(C)n(C(N)=NC(=O)c2ccccc2)n1`: the survivor count (dose: 100.0 mg/kg/injection, schedule: Q01DX009 (ip), vehicle: Klucel (hydroxypropylcellulose) (HPC)) was 6 of 6 and the survivor count under setting [5] is 6 of 6.
Turning to `COC1/C=C/OC2(C)Oc3c(C)c(O)c4c(O)c(c(/C=N/N5CC(C)N(Cc6ccccc6)C(C)C5)c(O)c4c3C2=O)NC(=O)C(C)=C/C=C/C(C)C(O)C(C)C(O)C(C)C(OC(C)=O)C1C` (stereo not given), the survivor count under setting [6] is reported as 3 of 6.
Regarding `CCCCOC(=O)c1ccccc1OP(=O)(N(C)C)N(C)C`, for the setting “dose: 200.0 mg/kg/injection, schedule: Q01DX005 (ip), vehicle: saline”, the survivor count was 0 of 6.
On to `O=S(=O)(O)OOS(=O)(=O)O`, for which, under setting [5], the survivor count is 6 of 6.
In the case of `CC1CCC(C(C)C)/C(=N/NC(=O)c2cccnc2)C1` (stereo not given), the survivor count by setting is: under setting [7], 1 of 6; under setting [8], 0 of 6.
For `Cc1cc2[nH]c(Cl)c(/C=N/Nc3ccccc3[N+](=O)[O-])c2cc1O`, the survivor count was 6 of 6 (dose: 100.0 mg/kg/injection, schedule: Q01DX001 (ip), vehicle: Klucel (hydroxypropylcellulose) (HPC)) and 5 of 6 (dose: 400.0 mg/kg/injection, schedule: Q01DX001 (ip), vehicle: Klucel (hydroxypropylcellulose) (HPC)).
As to `CN(CCCCC1CCCN(C(=O)c2ccccc2)C1)C(=O)c1ccccc1` (stereo not given), the survivor count by setting is: under setting [7], 1 of 5; under setting [8], 0 of 5.
For `C(#Cc1c2ccccc2c(C#Cc2ccccc2)c2c(-c3ccccc3)cccc12)c1ccccc1`, the survivor count under setting [3] is listed as 5 of 5.
As to `Cc1nn(C(=O)c2ccccn2)c(-c2ccccc2)c1N=Nc1ccc(S(=O)(=O)Nc2ncccn2)cc1`, under setting [1], the survivor count is listed as 3 of 6.
Take `CCCCOC(=O)C1C2CCC(O2)C1C(N)=O` (stereo not given): the survivor count under setting [1] is 0 of 6.
Consider `O=C(O)CC1CCC1CC(=O)O` (stereo not given), for which the survivor count under setting [6] is given as 5 of 6.
In the case of `CCCCCC(CN(C)C)C(O)/C=C/c1ccc(Cl)c(Cl)c1` (stereo not given), the survivor count reads like this: (dose: 50.0 mg/kg/injection, schedule: Q01DX009 (ip), vehicle: saline) 2 of 6 and 4 of 6; under setting [4], 0 of 6; (dose: 200.0 mg/kg/injection, schedule: Q01DX009 (ip), vehicle: saline) 0 of 6.
Regarding `C=CCNC(=S)Nc1ncn[nH]1`, under setting [8], the survivor count is 0 of 6.

Values taken from PubChem BioAssay AID330 (DTP/NCI, 2004).
